PubChem BioAssay AID743121 – NCATS | 2013

Aim: 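Genes whose silencing strengthens cell killing by camptothecin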 (primary screen)
Cells: MDA-MB-231 cells, a human breast cancer line
Reagent: single siRNA against human genes, 20 nM siRNA (0.8 pmol per well)
Timing: 120 h (drug added 48 h after transfection, read 72 h later)
Treatment: camptothecin 20 nM (about EC30) for 72 h; vehicle 0.1% DMSO in parallel plates
Measurement: 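Cell viability by ATP luminescence (CellTiter-Glo) as % of non-targeting siRNA wells, and the log2 ratio of viability without drug over viability with camptothecin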
Reading the numbers: log2 vehicle/camptothecin viability: higher = stronger sensitisation to camptothecin
Hit rule: 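Each gene scored by redundant siRNA activity (RSA) over its individual siRNA ratios; a gene is called active at p < 0.001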
Shown is an unselected part of about 26,000 reagents tested. In the full data, 167 (0.63%) got an active call. 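Calls are per gene from RSA p-values that are not deposited; an individual active-marked siRNA can sensitise only weakly.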 Not all columns of the deposit are shown. No sequences are given here.

| Gene | PubChem SID | log2 vehicle/camptothecin viability | Call |
| --- | --- | --- | --- |
| RAB6C (RAB6C, member RAS oncogene family) | SID164543015 | -0.0404 | inactive |
| RAB6C (RAB6C, member RAS oncogene family) | SID164543018 | 0.139 | inactive |
| RAB6C (RAB6C, member RAS oncogene family) | SID164543019 | -0.142 | inactive |
| RAB6C (RAB6C, member RAS oncogene family) | SID164543020 | -0.247 | inactive |
| MMP23A (matrix metallopeptidase 23A (pseudogene)) | SID164398093 | -0.575 | inactive |
| CCL24 (C-C motif chemokine ligand 24) | SID164387391 | 0.0244 | inactive |
| CCL24 (C-C motif chemokine ligand 24) | SID164387393 | 0.677 | inactive |
| CCL24 (C-C motif chemokine ligand 24) | SID164387394 | 0.101 | inactive |
| CCL24 (C-C motif chemokine ligand 24) | SID164387395 | -0.25 | inactive |
| ILKAP (ILK associated serine/threonine phosphatase) | SID164537108 | -0.0586 | inactive |
| ILKAP (ILK associated serine/threonine phosphatase) | SID164537109 | 0.251 | inactive |
| ILKAP (ILK associated serine/threonine phosphatase) | SID164537112 | -0.181 | inactive |
| ILKAP (ILK associated serine/threonine phosphatase) | SID164537114 | -0.396 | inactive |
| INPP5F (inositol polyphosphate-5-phosphatase F) | SID164444105 | -0.0708 | inactive |
| INPP5F (inositol polyphosphate-5-phosphatase F) | SID164444106 | -0.0228 | inactive |
| INPP5F (inositol polyphosphate-5-phosphatase F) | SID164444108 | -0.00875 | inactive |
| INPP5F (inositol polyphosphate-5-phosphatase F) | SID164444111 | 0.197 | inactive |
| INPP5F (inositol polyphosphate-5-phosphatase F) | SID164444112 | 0.00339 | inactive |
| INPP5F (inositol polyphosphate-5-phosphatase F) | SID164444113 | -0.559 | inactive |
| INPP5F (inositol polyphosphate-5-phosphatase F) | SID164444114 | -0.125 | inactive |
| INPP5F (inositol polyphosphate-5-phosphatase F) | SID164444115 | 0.318 | inactive |
| H2BC17 (H2B clustered histone 17) | SID164397092 | -0.387 | inactive |
| H2BC17 (H2B clustered histone 17) | SID164397094 | -0.0209 | inactive |
| H2BC17 (H2B clustered histone 17) | SID164397095 | -0.398 | inactive |
| H2BC17 (H2B clustered histone 17) | SID164397096 | -0.0519 | inactive |
| ULBP3 (UL16 binding protein 3) | SID164531731 | -0.0425 | inactive |
| ULBP3 (UL16 binding protein 3) | SID164531732 | -0.736 | inactive |
| ULBP3 (UL16 binding protein 3) | SID164531733 | 0.252 | inactive |
| ULBP3 (UL16 binding protein 3) | SID164531734 | 0.248 | inactive |

Next part (9 carried over from the part before).
| Gene | PubChem SID | log2 vehicle/camptothecin viability | Call |
| --- | --- | --- | --- |
| INPP5F (inositol polyphosphate-5-phosphatase F) | SID164444115 | 0.318 | inactive |
| H2BC17 (H2B clustered histone 17) | SID164397092 | -0.387 | inactive |
| H2BC17 (H2B clustered histone 17) | SID164397094 | -0.0209 | inactive |
| H2BC17 (H2B clustered histone 17) | SID164397095 | -0.398 | inactive |
| H2BC17 (H2B clustered histone 17) | SID164397096 | -0.0519 | inactive |
| ULBP3 (UL16 binding protein 3) | SID164531731 | -0.0425 | inactive |
| ULBP3 (UL16 binding protein 3) | SID164531732 | -0.736 | inactive |
| ULBP3 (UL16 binding protein 3) | SID164531733 | 0.252 | inactive |
| ULBP3 (UL16 binding protein 3) | SID164531734 | 0.248 | inactive |
| PTPRN (protein tyrosine phosphatase receptor type N) | SID164384033 | -0.197 | inactive |
| PTPRN (protein tyrosine phosphatase receptor type N) | SID164384034 | -0.257 | inactive |
| PTPRN (protein tyrosine phosphatase receptor type N) | SID164384037 | -0.321 | inactive |
| PTPRN (protein tyrosine phosphatase receptor type N) | SID164384038 | 0.525 | inactive |
| GPR180 (G protein-coupled receptor 180) | SID164578764 | 0.246 | inactive |
| GPR180 (G protein-coupled receptor 180) | SID164578767 | -0.0903 | inactive |
| GPR180 (G protein-coupled receptor 180) | SID164578768 | -0.492 | inactive |
| OR2T8 (olfactory receptor family 2 subfamily T member 8) | SID164659106 | -0.139 | inactive |
| OR2T8 (olfactory receptor family 2 subfamily T member 8) | SID164659109 | -0.13 | inactive |
| OR2T8 (olfactory receptor family 2 subfamily T member 8) | SID174316051 | -0.384 | inactive |
| SCN5A (sodium voltage-gated channel alpha subunit 5) | SID164387140 | 0.0029 | inactive |
| SCN5A (sodium voltage-gated channel alpha subunit 5) | SID164387144 | -0.316 | inactive |
| SCN5A (sodium voltage-gated channel alpha subunit 5) | SID164387146 | -0.481 | inactive |
| SCN5A (sodium voltage-gated channel alpha subunit 5) | SID164387147 | -0.531 | inactive |
| GMEB1 (glucocorticoid modulatory element binding protein 1) | SID164412865 | -0.362 | inactive |
| GMEB1 (glucocorticoid modulatory element binding protein 1) | SID164412866 | -0.0501 | inactive |
| GMEB1 (glucocorticoid modulatory element binding protein 1) | SID164412867 | -0.36 | inactive |
| GMEB1 (glucocorticoid modulatory element binding protein 1) | SID164412870 | -0.176 | inactive |
| IKBKB (inhibitor of nuclear factor kappa B kinase subunit beta) | SID164371151 | -0.234 | inactive |
| IKBKB (inhibitor of nuclear factor kappa B kinase subunit beta) | SID164371154 | -0.471 | inactive |
| IKBKB (inhibitor of nuclear factor kappa B kinase subunit beta) | SID164371158 | 0.14 | inactive |
| IKBKB (inhibitor of nuclear factor kappa B kinase subunit beta) | SID164371161 | -0.0694 | inactive |
| OR1Q1 (olfactory receptor family 1 subfamily Q member 1) | SID164578062 | -0.255 | inactive |
| OR1Q1 (olfactory receptor family 1 subfamily Q member 1) | SID164578065 | -0.543 | inactive |
| OR1Q1 (olfactory receptor family 1 subfamily Q member 1) | SID164578066 | -0.183 | inactive |
| OR1Q1 (olfactory receptor family 1 subfamily Q member 1) | SID164578067 | -0.133 | inactive |
| IL36RN (interleukin 36 receptor antagonist) | SID164460530 | -0.557 | inactive |
| IL36RN (interleukin 36 receptor antagonist) | SID164460531 | 0.228 | inactive |
| IL36RN (interleukin 36 receptor antagonist) | SID164460533 | -0.168 | inactive |
| IL36RN (interleukin 36 receptor antagonist) | SID164460534 | -0.111 | inactive |
| UBE2C (ubiquitin conjugating enzyme E2 C) | SID164415322 | 0.0153 | inactive |
| UBE2C (ubiquitin conjugating enzyme E2 C) | SID164415323 | -0.295 | inactive |
| UBE2C (ubiquitin conjugating enzyme E2 C) | SID164415325 | 0.275 | inactive |
| UBE2C (ubiquitin conjugating enzyme E2 C) | SID164415326 | 0.231 | inactive |
| UBE2C (ubiquitin conjugating enzyme E2 C) | SID164415327 | 0.122 | inactive |
| UBE2C (ubiquitin conjugating enzyme E2 C) | SID164415329 | -0.26 | inactive |
| UBE2C (ubiquitin conjugating enzyme E2 C) | SID164415330 | -0.0716 | inactive |
| UBE2C (ubiquitin conjugating enzyme E2 C) | SID164415333 | 0.187 | inactive |
| UBE2C (ubiquitin conjugating enzyme E2 C) | SID164415334 | -0.211 | inactive |
| UBE2C (ubiquitin conjugating enzyme E2 C) | SID164415338 | -0.00619 | inactive |
| UBE2C (ubiquitin conjugating enzyme E2 C) | SID164415339 | 0.113 | inactive |
| UBE2C (ubiquitin conjugating enzyme E2 C) | SID164415340 | -0.213 | inactive |
